These are yes or no findings as the source states them, for the method shown. In cells and extracts the contact can be indirect. Some binding calls cover weakened binding; strength is not graded here.
Target: 14-3-3ζ (human (endogenous in CCA tissues, TFK-1 and HuCCT1)) (UniProt P63104)
Test: co-IP; endogenous proteins in RIPA lysates of CCA tissues and TFK-1 and HuCCT1 cells; 1 mg total protein pre-cleared with rabbit IgG and protein A+G agarose; precipitated with anti-aPKC-ι or anti-14-3-3ζ antibody overnight at 4°C; washed 5 times with RIPA lysis buffer; Western blot with the other antibody; rabbit IgG as negative control

Chains of the proteins cited; added tags and fusions are not shown.
UniProt P63104: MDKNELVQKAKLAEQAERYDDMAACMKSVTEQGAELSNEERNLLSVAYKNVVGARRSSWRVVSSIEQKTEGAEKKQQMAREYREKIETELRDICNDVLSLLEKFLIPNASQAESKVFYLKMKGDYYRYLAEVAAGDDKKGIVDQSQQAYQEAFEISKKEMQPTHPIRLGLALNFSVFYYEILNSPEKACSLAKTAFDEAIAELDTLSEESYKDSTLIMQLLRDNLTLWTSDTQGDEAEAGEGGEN

binding: binds
B1: atypical protein kinase C-ι (protein, UniProt P41743 1-596)
chain: MPTQRDSSTMSHTVAGGGSGDHSHQVRVKAYYRGDIMITHFEPSISFEGLCNEVRDMCSFDNEQLFTMKWIDEEGDPCTVSSQLELEEAFRLYELNKDSELLIHVFPCVPERPGMPCPGEDKSIYRRGARRWRKLYCANGHTFQAKRFNRRAHCAICTDRIWGLGRQGYKCINCKLLVHKKCHKLVTIECGRHSLPQEPVMPMDQSSMHSDHAQTVIPYNPSSHESLDQVGEEKEAMNTRESGKASSSLGLQDFDLLRVIGRGSYAKVLLVRLKKTDRIYAMKVVKKELVNDDEDIDWVQTEKHVFEQASNHPFLVGLHSCFQTESRLFFVIEYVNGGDLMFHMQRQRKLPEEHARFYSAEISLALNYLHERGIIYRDLKLDNVLLDSEGHIKLTDYGMCKEGLRPGDTTSTFCGTPNYIAPEILRGEDYGFSVDWWALGVLMFEMMAGRSPFDIVGSSDNPDQNTEDYLFQVILEKQIRIPRSLSVKAASVLKSFLNKDPKERLGCHPQTGFADIQGHPFFRNVDWDMMEQKQVVPPFKPNISGEFGLDNFDSQFTNEPVQLTPDDDDIVRKIDQSEFEGFEYINPLLMSAEECV

Source: PMC5342411
